The experiment can be described thus: qHTS Assay to Find Inhibitors of Chronic Active B-Cell Receptor Signaling. The following applies: ABC-DLBCL IkBa-CBG/CBR reporter, luminescence ratio (green luciferase fused to IkBa over red control in TMD8 lymphoma cells), 4 h. The procedure, abridged:
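TMD8 ABC-DLBCL cells carrying doxycycline-inducible green luciferase fused to IkappaBalpha plus unfused red luciferase were exposed to compounds (up to 46 uM) for 4 hrs at 37C. Activity came from the overlap-corrected green/red luminescence ratio.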
For orientation: In qHTS, concentration-response curves come from the screen itself.

The mark [1] stands for this setting: measured here: CBR red luminescence, cell number.
[2] abbreviates: measured here: IkBa-CBG green luminescence.

The other results are listed elsewhere or left out. Further columns of the screen follow, without active or inactive calls. Most of these compounds were active or inconclusive in the main read-out, so they are no random draw. Words in brackets tell the shape of the fitted curve; partial curves, single points and poor fits give uncertain potencies.

Turning to `O=C1C=CC(=O)N1c1ccc(N2CCCCC2)cc1`, the AC50 (usually the concentration giving half of the maximal activity seen) was 10 µM [falling, partial curve] under setting [1] and 11.2 µM [rising, partial curve, poor fit] under setting [2].

Regarding `CCOC(=O)NC1(C(F)(F)F)NC(=O)N(Cc2ccco2)C1=O` (stereo unspecified), the AC50 under setting [1] is 29.1 µM [falling, single point].

As to `Cc1ccc(OCCC(=O)OCC(=O)N2CC(=O)Nc3ccccc32)cc1`, the AC50 under setting [1] is 4.61 µM [falling, full curve].

Turning to `COc1cccc(N/C=C(\C#N)c2ccc(OCCCF)cc2)c1`, the AC50 under setting [1] is 16.4 µM [falling, single point].

Consider `CC(C)c1ccc(/C=N/Nc2ccc(C(=O)O)cc2)cc1`, for which, under setting [1], the AC50 is 0.058 µM [falling, full curve].

`CCOC(=O)C1CCN(C(=O)COC(=O)c2nn(C)c(=O)c3ccccc23)CC1`: under setting [1], the AC50 is 11.6 µM [falling, partial curve, poor fit].

As to `Cc1[nH]n(-c2ccccc2)c(=O)c1-c1ccc(Cl)cc1`, the AC50 under setting [1] was 6.51 µM [falling, single point].

Consider `CCOCC(=O)Nc1nc2ccc(OCC)cc2s1`, for which, under setting [1], the AC50 was 13 µM [falling, single point].

For the molecule `CC(C)NC(=O)c1cc(-c2ccc3c(c2)OCO3)on1`, under setting [1], the AC50 was 7.08 µM [falling, partial curve].

In the case of `Clc1ccccc1OCc1nc(-c2ccncc2)no1`, the AC50 under setting [1] was 18.4 µM [rising, partial curve, poor fit].

As for `Cc1ccc(-c2nnc(NC(=O)c3ccco3)o2)c(C)c1`, the AC50 under setting [1] was 3.66 µM [falling, full curve].

Consider `Cc1nn(Cc2c(F)c(F)c(F)c(F)c2F)c(C)c1NC(=O)c1ccc(COc2ccccc2Cl)cc1`, for which, under setting [1], the AC50 was 3.98 µM [falling, full curve, poor fit].

As for `CC1(C(=O)O)CCC(C(=O)Nc2ccc(OC(F)(F)Cl)cc2)C1(C)C` (stereo unspecified), the AC50 under setting [1] is 35.5 µM [rising, partial curve, poor fit].

Turning to `CN(Cc1ccccc1F)c1nc(-c2cccnc2)nc2ccccc12`, the AC50 is 35.5 µM [falling, single point] under setting [1] and 35.5 µM [rising, partial curve, poor fit] under setting [2].

As for `Cc1cc(C)c(C#N)c(N2CCN(Cc3ccc4c(c3)OCO4)CC2)n1`, the AC50 under setting [1] was 0.794 µM [rising, full curve, poor fit].

As for `Cc1ccc(C)c(/C=C/C(=O)c2ccccc(=O)c2O)c1`, the AC50 was 18.4 µM [falling, single point] under setting [1] and 23.1 µM [falling, partial curve, poor fit] under setting [2].

On to `CCCCNc1c(-c2ccc(OC)c(SC(C)CC)c2)nc2ccc(C)cn12` (stereo unspecified), for which, under setting [1], the AC50 was 29.1 µM [falling, single point].

As to `Nc1ccc2nn(-c3ccc(Cl)cc3)nc2c1`, the AC50 under setting [1] is 15.8 µM [falling, partial curve, poor fit].

Turning to `COc1ccc(-c2nc3ccccc3c(=O)o2)cc1OC`, the AC50 under setting [1] is 7.08 µM [falling, full curve].

For the molecule `CC(Nc1ccc(Br)cc1)C(=O)N/N=C/c1ccccc1OCc1ccccc1` (stereo unspecified), under setting [1], the AC50 was 32.6 µM [falling, single point].

Take `NNc1nc(-c2ccccc2)c2cc(Cl)ccc2n1`: the AC50 under setting [1] is 4.47 µM [falling, full curve] and the AC50 under setting [2] is 5.01 µM [rising, partial curve, poor fit].

Consider `Cc1ccc2c(c1)NC(=O)[C@@]1(C)[C@@H](c3ccccc3)[C@H]3COc4ccccc4[C@@H]3N1C2=O`, for which the AC50 by setting is: under setting [1], 2.31 µM [falling, full curve]; under setting [2], 2.06 µM [rising, full curve, poor fit].

For `O=c1c2c([nH]c3ccccc13)C(=C1CCCC1)CC2`, the AC50 under setting [1] was 2.24 µM [falling, full curve, poor fit].

On to `O=C(Cc1cccc2ccccc12)NCCc1ccccc1`, for which, under setting [1], the half-maximal activity concentration (AC50) was 1.26 µM [rising, partial curve, poor fit].

Turning to `CC(=O)c1ccc(NC(=O)Nc2cccc3ccccc23)cc1`, the AC50 under setting [1] was 0.251 µM [falling, full curve, poor fit].

As to `O=C(CSc1ncccn1)N/N=C/c1ccc(OC2CSC2)cc1`, under setting [1], the AC50 was 0.708 µM [falling, full curve, poor fit].

On to `Cc1nc(NC2=NCN(Cc3cccnc3)CN2)nc2c(C)cccc12`, for which the AC50 under setting [1] is 0.0184 µM [falling, full curve, poor fit].

As to `CN(C)c1ccc(/C=N/NC(=O)c2ccc(NC(=O)c3ccccc3)cc2)cc1`, the AC50 under setting [1] is 22.4 µM [falling, partial curve, poor fit].

Turning to `O=C(Nc1ccc(CN2CCCCC2)cc1)c1sc2ccccc2c1Cl`, under setting [1], the AC50 is 14.1 µM [falling, single point].

As to `Cc1nc2c(C)cccc2c2c1COC2`, the AC50 under setting [1] was 22.4 µM [rising, partial curve, poor fit].

For `CCCn1c(N2CCN(C(=O)Nc3ccc(Cl)cc3)CC2)nc2ccccc21`, the AC50 under setting [1] is 3.98 µM [rising, partial curve, poor fit].

As for `CC(C1CC1)N(C(=O)NC1CCS(=O)(=O)C1)c1ccccc1` (stereo unspecified), the AC50 under setting [1] is 6.31 µM [falling, partial curve, poor fit].

For the molecule `O=C(COc1ccc(-c2ccccc2)cc1)N1CCN(S(=O)(=O)Cc2ccccc2)CC1`, the AC50 by setting is: under setting [1], 29.1 µM [rising, single point]; under setting [2], 13 µM [falling, partial curve].

With `COC(=O)c1c(C)[nH]c(-c2csc(N)n2)c1C`, the AC50 reads like this: under setting [1], 35.5 µM [rising, single point]; under setting [2], 15.8 µM [falling, single point].

As for `CCSc1nnc(NC(=O)c2ccccc2C)s1`, the AC50 under setting [1] was 14.1 µM [falling, partial curve, poor fit].

On to `COc1cc(C)c(CNc2cccc(C)c2)cc1C`, for which the AC50 under setting [1] is 1.46 µM [rising, full curve, poor fit].

For the molecule `CCCC[C@@H](CN[C@H](C)CNC)NCC1CCC(C(C)(C)C)CC1` (stereo partly specified), the AC50 under setting [1] is 11.2 µM [falling, partial curve, poor fit].

For the molecule `CCCc1cc(NC(=O)COC(=O)c2ccc(O)cc2O)n(-c2ccccc2)n1`, under setting [1], the AC50 was 4.11 µM [falling, single point].

Take `CC(C)(C)C1CCC(OC(=O)CN2CCOCC2)CC1` (stereo unspecified): under setting [1], the AC50 is 0.116 µM [falling, full curve, poor fit].
